Experimental data published in PMC6090690.
Results are given in words; binding and its absence hold for the method and conditions named. In cells and extracts the contact can be indirect. Some entries that bind do so weakly or less than the wild type.

The chains behind the UniProt entries cited, without tags or fusion partners.
UniProt P27986: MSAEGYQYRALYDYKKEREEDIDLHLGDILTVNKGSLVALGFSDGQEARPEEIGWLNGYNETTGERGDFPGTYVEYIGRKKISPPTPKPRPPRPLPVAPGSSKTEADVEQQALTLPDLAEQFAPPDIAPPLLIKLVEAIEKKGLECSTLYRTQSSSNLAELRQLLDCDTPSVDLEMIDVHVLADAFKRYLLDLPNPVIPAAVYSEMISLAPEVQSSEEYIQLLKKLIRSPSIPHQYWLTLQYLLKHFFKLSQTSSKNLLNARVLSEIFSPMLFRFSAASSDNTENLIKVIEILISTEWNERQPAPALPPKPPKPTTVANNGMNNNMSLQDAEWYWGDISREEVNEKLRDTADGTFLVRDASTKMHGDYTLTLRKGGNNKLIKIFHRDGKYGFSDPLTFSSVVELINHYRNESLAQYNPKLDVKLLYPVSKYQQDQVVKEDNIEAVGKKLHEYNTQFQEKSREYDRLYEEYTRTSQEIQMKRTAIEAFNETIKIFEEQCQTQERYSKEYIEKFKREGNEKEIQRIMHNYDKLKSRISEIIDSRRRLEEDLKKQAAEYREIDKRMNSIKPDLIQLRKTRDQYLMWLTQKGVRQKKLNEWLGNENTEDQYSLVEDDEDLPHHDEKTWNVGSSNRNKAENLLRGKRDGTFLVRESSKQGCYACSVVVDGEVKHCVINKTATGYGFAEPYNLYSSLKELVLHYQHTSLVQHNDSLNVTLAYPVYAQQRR

Target: p85α subunit of PI3K (PI3Kp85α) (human (endogenous in A549 and H1299)) (UniProt P27986)
Assay: co-IP; lysates of A549 and H1299 cells; performed as described previously (ref. 28); the paper does not tell which protein was precipitated

binding: binds
B1: Makorin RING zinc finger-2 (MKRN2) (protein, UniProt Q9H000 1-416)
chain: MSTKQITCRYFMHGVCREGSQCLFSHDLANSKPSTICKYYQKGYCAYGTRCRYDHTRPSAAAGGAVGTMAHSVPSPAFHSPHPPSEVTASIVKTNSHEPGKREKRTLVLRDRNLSGMAERKTQPSMVSNPGSCSDPQPSPEMKPHSYLDAIRSGLDDVEASSSYSNEQQLCPYAAAGECRFGDACVYLHGEVCEICRLQVLHPFDPEQRKAHEKICMLTFEHEMEKAFAFQASQDKVCSICMEVILEKASASERRFGILSNCNHTYCLSCIRQWRCAKQFENPIIKSCPECRVISEFVIPSVYWVEDQNKKNELIEAFKQGMGKKACKYFEQGKGTCPFGSKCLYRHAYPDGRLAEPEKPRKQLSSQGTVRFFNSVRLWDFIENRESRHVPNNEDVDMTELGDLFMHLSGVESSEP
